No constants are given. Whether binding was seen depends on the method and setting. In cells and extracts the contact can be indirect. Some results given as binding are weak or reduced against the parent protein; the word gives no strength.
Assays:
[1] = molecular target: GFP-SopA (S. Typhimurium SL1344) (UniProt Q8ZNR3); assay: co-IP
[2] = molecular target: SopA–HA (S. Typhimurium SL1344) (UniProt Q8ZNR3); assay: co-IP

Protein sequences, listed by entry. Tags and fused reporters are not part of them.
UniProt Q8ZNR3: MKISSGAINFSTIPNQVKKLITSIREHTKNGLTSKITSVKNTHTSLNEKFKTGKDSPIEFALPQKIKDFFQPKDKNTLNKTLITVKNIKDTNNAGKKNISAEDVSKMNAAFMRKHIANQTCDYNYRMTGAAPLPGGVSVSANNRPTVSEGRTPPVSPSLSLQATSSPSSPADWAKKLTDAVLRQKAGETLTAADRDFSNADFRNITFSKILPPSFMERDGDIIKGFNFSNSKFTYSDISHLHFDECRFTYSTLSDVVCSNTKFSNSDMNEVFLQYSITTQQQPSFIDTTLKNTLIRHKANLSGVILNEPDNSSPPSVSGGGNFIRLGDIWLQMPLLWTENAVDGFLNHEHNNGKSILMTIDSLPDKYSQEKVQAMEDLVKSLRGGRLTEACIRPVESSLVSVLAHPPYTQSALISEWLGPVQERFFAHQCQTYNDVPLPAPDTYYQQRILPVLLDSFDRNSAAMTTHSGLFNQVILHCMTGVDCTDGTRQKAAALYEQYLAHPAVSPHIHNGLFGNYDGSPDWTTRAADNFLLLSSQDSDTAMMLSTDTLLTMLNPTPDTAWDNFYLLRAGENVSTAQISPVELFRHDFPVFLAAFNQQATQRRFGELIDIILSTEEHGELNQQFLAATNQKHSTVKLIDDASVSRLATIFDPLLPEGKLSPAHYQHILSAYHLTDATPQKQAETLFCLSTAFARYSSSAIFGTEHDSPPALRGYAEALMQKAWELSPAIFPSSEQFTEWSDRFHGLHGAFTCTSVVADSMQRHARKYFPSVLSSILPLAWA

B1: endogenous TRIM65 (protein, UniProt Q6PJ69 1-517)
chain: MAAQLLEEKLTCAICLGLYQDPVTLPCGHNFCGACIRDWWDRCGKACPECREPFPDGAELRRNVALSGVLEVVRAGPARDPGPDPGPGPDPAARCPRHGRPLELFCRTEGRCVCSVCTVRECRLHERALLDAERLKREAQLRASLEVTQQQATQAEGQLLELRKQSSQIQNSACILASWVSGKFSSLLQALEIQHTTALRSIEVAKTQALAQARDEEQRLRVHLEAVARHGCRIRELLEQVDEQTFLQESQLLQPPGPLGPLTPLQWDEDQQLGDLKQLLSRLCGLLLEEGSHPGAPAKPVDLAPVEAPGPLAPVPSTVCPLRRKLWQNYRNLTFDPVSANRHFYLSRQDQQVKHCRQSRGPGGPGSFELWQVQCAQSFQAGHHYWEVRASDHSVTLGVSYPQLPRCRLGPHTDNIGRGPCSWGLCVQEDSLQAWHNGEAQRLPGVSGRLLGMDLDLASGCLTFYSLEPQTQPLYTFHALFNQPLTPVFWLLEGRTLTLCHQPGAVFPLGPQEEVLS
In the case of B1, the binding [1] is reported as “binds”.

B2: MBP-TRIM56 (natural protein, human, UniProt Q9BRZ2 1-755, looked up)
chain: MVSHGSSPSLLEALSSDFLACKICLEQLRAPKTLPCLHTYCQDCLAQLADGGRVRCPECRETVPVPPEGVASFKTNFFVNGLLDLVKARACGDLRAGKPACALCPLVGGTSTGGPATARCLDCADDLCQACADGHRCTRQTHTHRVVDLVGYRAGWYDEEARERQAAQCPQHPGEALRFLCQPCSQLLCRECRLDPHLDHPCLPLAEAVRARRPGLEGLLAGVDNNLVELEAARRVEKEALARLREQAARVGTQVEEAAEGVLRALLAQKQEVLGQLRAHVEAAEEAARERLAELEGREQVARAAAAFARRVLSLGREAEILSLEGAIAQRLRQLQGCPWAPGPAPCLLPQLELHPGLLDKNCHLLRLSFEEQQPQKDGGKDGAGTQGGEESQSRREDEPKTERQGGVQPQAGDGAQTPKEEKAQTTREEGAQTLEEDRAQTPHEDGGPQPHRGGRPNKKKKFKGRLKSISREPSPALGPNLDGSGLLPRPIFYCSFPTRMPGDKRSPRITGLCPFGPREILVADEQNRALKRFSLNGDYKGTVPVPEGCSPCSVAALQSAVAFSASARLYLINPNGEVQWRRALSLSQASHAVAALPSGDRVAVSVAGHVEVYNMEGSLATRFIPGGKASRGLRALVFLTTSPQGHFVGSDWQQNSVVICDGLGQVVGEYKGPGLHGCQPGSVSVDKKGYIFLTLREVNKVVILDPKGSLLGDFLTAYHGLEKPRVTTMVDGRYLVVSLSNGTIHIFRVRSPDS
notes: TRIM56, human, full length, in pMAL-C2X; also called recombinant TRIM56; not shown: MBP, N-terminal, kept
For B2, the binding [1] was “binds” and the binding [2] was “binds”.
